Results are given in words; binding and its absence hold for the method and conditions named. In cells and extracts the contact can be indirect. These calls come from enrichment with a bait or labelling near it, and not all partners need be listed. For part of these data: No binding means not detected with the bait. Tags and fused reporters may be left off the sequences shown.
T1: Tap-tagged Not2 (yeast) (UniProt P06100)
T1 sequence: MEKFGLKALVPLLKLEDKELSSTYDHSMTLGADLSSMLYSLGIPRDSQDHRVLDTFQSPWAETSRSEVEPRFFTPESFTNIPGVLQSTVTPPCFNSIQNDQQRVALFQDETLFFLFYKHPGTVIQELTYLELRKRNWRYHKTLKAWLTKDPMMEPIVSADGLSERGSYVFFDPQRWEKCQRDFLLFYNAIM

T2: Tap-tagged Not4 (yeast) (UniProt P34909)
T2 sequence: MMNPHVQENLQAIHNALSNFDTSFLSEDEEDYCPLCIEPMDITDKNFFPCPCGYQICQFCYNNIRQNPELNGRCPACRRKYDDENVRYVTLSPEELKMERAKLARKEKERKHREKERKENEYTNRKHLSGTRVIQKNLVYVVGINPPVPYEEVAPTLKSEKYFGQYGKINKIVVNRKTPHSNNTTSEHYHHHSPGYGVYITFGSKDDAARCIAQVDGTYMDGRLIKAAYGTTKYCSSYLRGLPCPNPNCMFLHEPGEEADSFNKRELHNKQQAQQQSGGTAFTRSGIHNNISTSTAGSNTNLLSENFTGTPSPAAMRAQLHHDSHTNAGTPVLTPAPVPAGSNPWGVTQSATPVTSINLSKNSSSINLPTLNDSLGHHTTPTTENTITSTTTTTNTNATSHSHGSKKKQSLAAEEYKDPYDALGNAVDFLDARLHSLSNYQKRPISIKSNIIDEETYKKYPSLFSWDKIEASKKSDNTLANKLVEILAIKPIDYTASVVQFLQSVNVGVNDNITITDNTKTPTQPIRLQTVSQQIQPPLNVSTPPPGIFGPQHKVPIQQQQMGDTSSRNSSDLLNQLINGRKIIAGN

T3: Tap-tagged Not5 (yeast) (UniProt Q12514)
T3 sequence: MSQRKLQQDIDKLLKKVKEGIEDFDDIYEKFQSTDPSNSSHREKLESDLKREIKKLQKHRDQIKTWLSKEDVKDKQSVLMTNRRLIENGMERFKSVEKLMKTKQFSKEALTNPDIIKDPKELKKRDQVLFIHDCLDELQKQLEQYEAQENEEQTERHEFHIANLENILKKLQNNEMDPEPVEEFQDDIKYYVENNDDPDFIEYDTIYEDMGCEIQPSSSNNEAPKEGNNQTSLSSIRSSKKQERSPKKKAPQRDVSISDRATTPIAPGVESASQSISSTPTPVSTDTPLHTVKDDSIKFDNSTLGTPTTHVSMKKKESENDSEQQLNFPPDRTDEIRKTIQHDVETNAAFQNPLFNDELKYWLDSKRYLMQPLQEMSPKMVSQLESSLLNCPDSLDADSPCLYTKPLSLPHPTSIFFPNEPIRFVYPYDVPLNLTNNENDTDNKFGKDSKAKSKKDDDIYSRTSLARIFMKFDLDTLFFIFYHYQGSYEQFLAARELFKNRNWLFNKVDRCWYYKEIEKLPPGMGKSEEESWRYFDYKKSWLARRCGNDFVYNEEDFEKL

B1: Rrp41 (protein, UniProt P46948 1-246)
chain: MSRLEIYSPEGLRLDGRRWNELRRFESSINTHPHAADGSSYMEQGNNKIITLVKGPKEPRLKSQMDTSKALLNVSVNITKFSKFERSKSSHKNERRVLEIQTSLVRMFEKNVMLNIYPRTVIDIEIHVLEQDGGIMGSLINGITLALIDAGISMFDYISGISVGLYDTTPLLDTNSLEENAMSTVTLGVVGKSEKLSLLLVEDKIPLDRLENVLAIGIAGAHRVRDLMDEELRKHAQKRVSNASAR
B2: Ccr4 (protein, UniProt P31384 1-837)
chain: MNDPSLLGYPNVGPQQQQQQQQQQHAGLLGKGTPNALQQQLHMNQLTGIPPPGLMNNSDVHTSSNNNSRQLLDQLANGNANMLNMNMDNNNNNNNNNNNNNNNGGGSGVMMNASTAAVNSIGMVPTVGTPVNINVNASNPLLHPHLDDPSLLNNPIWKLQLHLAAVSAQSLGQPNIYARQNAMKKYLATQQAQQAQQQAQQQAQQQVPGPFGPGPQAAPPALQPTDFQQSHIAEASKSLVDCTKQALMEMADTLTDSKTAKKQQPTGDSTPSGTATNSAVSTPLTPKIELFANGKDEANQALLQHKKLSQYSIDEDDDIENRMVMPKDSKYDDQLWHALDLSNLQIFNISANIFKYDFLTRLYLNGNSLTELPAEIKNLSNLRVLDLSHNRLTSLPAELGSCFQLKYFYFFDNMVTTLPWEFGNLCNLQFLGVEGNPLEKQFLKILTEKSVTGLIFYLRDNRPEIPLPHERRFIEINTDGEPQREYDSLQQSTEHLATDLAKRTFTVLSYNTLCQHYATPKMYRYTPSWALSWDYRRNKLKEQILSYDSDLLCLQEVESKTFEEYWVPLLDKHGYTGIFHAKARAKTMHSKDSKKVDGCCIFFKRDQFKLITKDAMDFSGAWMKHKKFQRTEDYLNRAMNKDNVALFLKLQHIPSGDTIWAVTTHLHWDPKFNDVKTFQVGVLLDHLETLLKEETSHNFRQDIKKFPVLICGDFNSYINSAVYELINTGRVQIHQEGNGRDFGYMSEKNFSHNLALKSSYNCIGELPFTNFTPSFTDVIDYIWFSTHALRVRGLLGEVDPEYVSKFIGFPNDKFPSDHIPLLARFEFMKTNTGSKKV
B3: Caf1 (protein, UniProt P39008 1-433)
chain: MQSMNVQPRVLAVGGEQFFSQRQASEQHQQQNMGPQVYSPKVNRARMFPQGMPVNTINGSVNQEMNNAYLLKQKNEPLLTQQQQQQQQQQQPFNIGTPVSVASLPPGLNVLQQQQQQQQQQQQQQQGVGLNRPLASQLPKHLTNQSMPPIFLPPPNYLFVRDVWKSNLYSEFAVIRQLVSQYNHVSISTEFVGTLARPIGTFRSKVDYHYQTMRANVDFLNPIQLGLSLSDANGNKPDNGPSTWQFNFEFDPKKEIMSTESLELLRKSGINFEKHENLGIDVFEFSQLLMDSGLMMDDSVTWITYHAAYDLGFLINILMNDSMPNNKEDFEWWVHQYMPNFYDLNLVYKIIQEFKNPQLQQSSQQQQQQQYSLTTLADELGLPRFSIFTTTGGQSLLMLLSFCQLSKLSMHKFPNGTDFAKYQGVIYGIDGDQ
B4: Rrp42 (protein, UniProt Q12277 1-265)
chain: MSLSVAEKSYLYDSLASTPSIRPDGRLPHQFRPIEIFTDFLPSSNGSSRIIASDGSECIVSIKSKVVDHHVENELLQVDVDIAGQRDDALVVETITSLLNKVLKSGSGVDSSKLQLTKKYSFKIFVDVLVISSHSHPVSLISFAIYSALNSTYLPKLISAFDDLEVEELPTFHDYDMVKLDINPPLVFILAVVGNNMLLDPAANESEVANNGLIISWSNGKITSPIRSVALNDSNVKSFKPHLLKQGLAMVEKYAPDVVRSLENL
B5: Not2 (protein, UniProt P06100 1-191)
chain: T1 sequence
B6: Caf130 (protein, UniProt P53280 1-1122)
chain: MTKKKAATNYAERQNLASEDSSGDSVHFKDFIPLQELLKDKNYVPSVENLEKILYNETMFNDQKICSNLLLEALIITLFTTISGKSALRLIQTSSLKERKSWAQSFENNSSSYASIVLSWKDNDILLLKFLRFLLANKTAPLQINRYNLPEYKLPLSFLIVSKITIPSILLNETYNLLKDYLYSITGRIESLISCSSTFDKPALVVRKILKDYNRMIECRNFYFWYSFNAENRVNLTFSDNISLLMENDEGNAGSGLDDSRFDHQKQPREAIMGRTINDQEQIYSFELNQDGTLEIPNVMEHSLLRHELLFKILNLTTVLTPLLELQFSTLCGLVDPLMQPTPNDKHIISIDFLFQLFLGLMSQSIKTSQEHNDHYDWKFYMCFNMQKIIDATMLRLNCFDFDILNSVNNTDNAVHWKTQLHRWLPHGLNTQDLELLYMIDILAVYTIYKLYEKIPIQLNPFLFSLISLWKNLSCVILLALEIDRIEEENGTYETPLMVRATIRGAAALRSVIATVLNGLVKNNDHDFKHESLNTFMSPYGRKLCHGALYADLRSHTASLLALGASIEDVTDLFADLQSGDRFDEDIRYMFDYECEDYDESFSESDHGGLDESVVNPTEKIASGSNNVFFRRRCNCIFNDDKLVAEDGANEAFGSTNSENVEGAMHNNRNAVHNATTATSDHVVTSPNPLSVRSRSTFEFDYSGEDWRDVPRDFNMYYSPSYSFIHEPKLDVIFSLTLRGATEKLNKEESILLVRSVASCVRNEQDQMILADLESNFSASINGDVEGEGNTKMSKIDNEDLRRTTPDDIYEIWSEESAFERMLNVNHDVAWRLMDEMLMCTGYRRILIWFLTHLELKHSLIYYVFELIMGLRGKPFSGEASDQDKKDDMIYEILKKKQKNEDASGLPFSRQGPIVLSDIETKMLLQEFFMNAAIFLSSKNNEEENEDGEKISLYSLGLVRLICYMVQTLIANDKFFFTKSECTFELQTLLMTWIGILPEAKDLFFKIKTRLAMEEEDSADTMQHEGRKNSDIEKKLNAKPASELNLKLLNLFPSKPANKDDSSPINTLRSFIADYSFDTQVNPPGRRVVFYDGKILPLPKADKPIPLHEYITLAELDVGDSE

Target: T1, Tap-tagged Not2 (yeast)
Test: affinity purification with mass spectrometry; large-scale tandem affinity purification of Tap-tagged proteins from 2 g of total extract of wild-type, not4Δ or caf40Δ cells, 150 mM NaCl; SDS-PAGE, coomassie, bands identified by MALDI-Tof fingerprint

| Binder | binding |
| --- | --- |
| B1 | binds |
| B2 | binds |
| B3 | binds |
| B4 | binds |

Target: T2, Tap-tagged Not4 (yeast)
Test: as above

| Binder | binding |
| --- | --- |
| B5 | no binding |
| B1 | binds |
| B2 | binds |
| B3 | binds |
| B4 | binds |
| B6 | no binding |

Target: T3, Tap-tagged Not5 (yeast)
Test: as above

| Binder | binding |
| --- | --- |
| B5 | binds |
| B1 | binds |
